The list shows a part of the results. The exact form of the protein is not confirmed.
Target: T1, ETS1 (UniProt P14921)
T1 sequence: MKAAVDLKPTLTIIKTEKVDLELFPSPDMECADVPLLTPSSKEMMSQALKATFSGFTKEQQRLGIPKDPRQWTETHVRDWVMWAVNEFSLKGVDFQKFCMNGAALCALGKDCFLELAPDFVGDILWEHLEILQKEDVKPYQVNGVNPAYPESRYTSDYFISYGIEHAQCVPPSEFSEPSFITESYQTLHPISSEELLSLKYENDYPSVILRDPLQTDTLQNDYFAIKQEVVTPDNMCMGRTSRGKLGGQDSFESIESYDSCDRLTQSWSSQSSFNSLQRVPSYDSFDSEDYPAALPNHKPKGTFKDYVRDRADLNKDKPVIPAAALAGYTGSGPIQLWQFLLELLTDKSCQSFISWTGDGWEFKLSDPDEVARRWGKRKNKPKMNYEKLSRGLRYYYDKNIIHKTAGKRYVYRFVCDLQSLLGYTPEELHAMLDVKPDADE
Assay: DAPPL (digital affinity profiling via proximity ligation, sequencing)
Details: 10 mM Tris-HCl pH 7.5, 50 mM NaCl, 1 mM DTT, 4% glycerol, room temperature, 30 min; GST-TFs on glutathione beads, 16-mer random dsDNA library, 0.1% …; high values mean tight binding; double strand, one strand shown; scale: fold enrichment (6-mer frequency, TF over GST control)

ACATAC
binding signal: 1.22

ATGGAT
binding signal: 1.08

CGTCTC
binding signal: 1.58

CCGTAC
binding signal: 1.33

GCTAAT
binding signal: 1.12

CCATAA
binding signal: 1.28

ATGTTC
binding signal: 1.28

TAACAA
binding signal: 1.26

ATGAAA
binding signal: 1.21

ATGCAC
binding signal: 1.23

GAAGCT
binding signal: 1.58

TCATGC
binding signal: 1.17

ATTAGC
binding signal: 1.19

CACATT
binding signal: 1.21

CCCGTT
binding signal: 1.13

ACTAAA
binding signal: 1.29

AGATCC
binding signal: 1.08

ACCGGA
binding signal: 2.88

TCACGC
binding signal: 1.24

CCATTG
binding signal: 1.18

GATTCC
binding signal: 1.09

TCGACC
binding signal: 1.4

TGCTCT
binding signal: 1.39

GGAAGC
binding signal: 1.58

CCTGCA
binding signal: 1.24

AAGTAC
binding signal: 1.37

TTGAAC
binding signal: 1.06

CCGCTA
binding signal: 1.33

TTTTGT
binding signal: 1.35

ATATGA
binding signal: 1.13

ACGTTC
binding signal: 1.31

CGCCCG
binding signal: 1.14

ATCACT
binding signal: 1.31

ATCCGA
binding signal: 1.16

AGAAAT
binding signal: 1.18

GACTCT
binding signal: 1.43

GATATC
binding signal: 1.53

GGCTCC
binding signal: 1.37

ATTATT
binding signal: 1.22

TTATAG
binding signal: 1.24

TGCCTG
binding signal: 1.27

GCTTAG
binding signal: 1.07

AATTTA
binding signal: 1.29

CAAATT
binding signal: 1.13

CACTCT
binding signal: 1.3

CTCAAC
binding signal: 1.28

CTACGA
binding signal: 1.2

ACACGA
binding signal: 1.09

CCCATG
binding signal: 0.988

GCTGAA
binding signal: 1.11

ATCTAG
binding signal: 1.1

CGGCTA
binding signal: 1.14

ATTGAC
binding signal: 1.25

AGCTTT
binding signal: 1.27

ATACTG
binding signal: 1.11

ACCTAA
binding signal: 1.15

TTCTCC
binding signal: 1.64

CGACTA
binding signal: 1.26

TTGACC
binding signal: 1.49

AAGGTA
binding signal: 1.15

GATGCC
binding signal: 1.4

TAATAG
binding signal: 1.17

GTGCTT
binding signal: 1.3

AAAAAG
binding signal: 1.39

CTTTTT
binding signal: 1.29

— paper PMC7862700
